Source: PubChem BioAssay AID504808 (Drosophila RNAi Screening Center, 2011)
Assay: 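Fly genes required to hold E2F transcription in check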 (primary screen). System: Drosophila S2 cells. Reagent: long dsRNA against Drosophila genes. Detection: 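Firefly luciferase driven by E2F sites, normalised to Renilla luciferase on the same minimal promoter, measured by plate reader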. Reading the numbers: E2F firefly: higher = more E2F reporter activity; Renilla normaliser: higher = more normaliser reporter signal. Hit rule: 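Called active if the normalised E2F reporter went up by over 50%; the cutoff is arbitrary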.
The screen tested about 21,000 reagents; below is a random part of those with a known target gene and a result. In the full data, 18 (0.084%) were called active. 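Raw counts without plate normalisation, one of two replicates; the ratio scores behind the calls were not deposited.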 Entries without a mark were called inactive. Names joined by + are all predicted targets of the reagent. Not given: the amount of reagent, the time to read-out.

gene | DRSC id | E2F firefly, rep 1 | Renilla normaliser, rep 1
CG34426 | DRSC09977 | 1.02e5 | 4377
CG30457 | DRSC06661 | 1.46e5 | 5058
CG16749 | DRSC15146 | 1.27e5 | 5729
Clk (Clock) | DRSC11117 | 98107 | 4492
Svil (Supervillin) | DRSC07981 | 1.38e5 | 4249
Svil (Supervillin) | DRSC08296 | 67128 | 3674
Svil (Supervillin) | DRSC08332 | 1.03e5 | 4255
Svil (Supervillin) | DRSC08333 | 78419 | 3756
Svil (Supervillin) | DRSC08494 | 1.17e5 | 4649
CG5043 | DRSC02805 | 96128 | 3988
cdi (center divider) | DRSC16922 | 74147 | 4180
Cep97 (Centrosomal protein 97kDa) | DRSC00637 | 86112 | 3989
Cpr72Ea (Cuticular protein 72Ea) | DRSC10451 | 82183 | 3989
CG6621 | DRSC16076 | 69744 | 3687
chk (chaski) | DRSC04994 | 85612 | 3417
CR31822 (pseudo) | DRSC01510 | 1.38e5 | 7111
CG15011 | DRSC08464 | 73619 | 2984
hbt (headbutt) | DRSC02503 | 92562 | 3950
CG33143 | DRSC04151 | 1.01e5 | 4465
CG33143 | DRSC04454 | 1.22e5 | 4521
Hsp70Bc (Heat shock protein 70 Bc) | DRSC16053 | 1.11e5 | 7273
CG31776 | DRSC00716 | 1.37e5 | 5163
Efa6 (Exchange factor for Arf 6) | DRSC13569 | 81173 | 2176
Efa6 (Exchange factor for Arf 6) | DRSC15312 | 74984 | 4745
Efa6 (Exchange factor for Arf 6) | DRSC16141 | 78962 | 6394
Rab5 | DRSC00777 | 87353 | 4370
Obp22a (Odorant-binding protein 22a) | DRSC00088 | 1.38e5 | 5232
CG15098 | DRSC06527 | 1.32e5 | 5074
mRpS34 (mitochondrial ribosomal protein S34) | DRSC09918 | 1.84e5 | 7932
Gagr (Gag-related) | DRSC10441 | 84505 | 3876
CG12853 | DRSC06193 | 1.05e5 | 4252
CG7879 | DRSC08600 | 65326 | 3384
KaiR1D (Kainate-type ionotropic glutamate receptor subunit 1D) | DRSC15516 | 1.41e5 | 7394
sll (slalom) | DRSC16271 | 64193 | 3660
stv (starvin) | DRSC09796 | 69532 | 3252
stv (starvin) | DRSC10111 | 1.08e5 | 5421
Hs3st-B (Heparan sulfate 3-O sulfotransferase-B) | DRSC20067 | 1.45e5 | 5260
Indy (I'm not dead yet) | DRSC10393 | 74103 | 4200
CG14223 | DRSC19580 | 1.42e5 | 6734
AMPdeam (AMP deaminase) | DRSC18996 | 83557 | 3017
AMPdeam (AMP deaminase) | DRSC19366 | 6922 | 792
AMPdeam (AMP deaminase) | DRSC19368 | 1.41e5 | 5192
AMPdeam (AMP deaminase) | DRSC19727 | 1.67e5 | 6577
CG15127 | DRSC05802 | 1.71e5 | 7403
CG15127 | DRSC06549 | 1.50e5 | 4899
px (plexus) | DRSC04708 | 71111 | 3376
ms(3)76Ba (male sterile (3) 76Ba) | DRSC10091 | 1.51e5 | 6468
CtsF (Cathepsin F) | DRSC12056 | 71516 | 3602
CtsF (Cathepsin F) | DRSC12195 | 83550 | 3911
CtsF (Cathepsin F) | DRSC12196 | 1.32e5 | 6746
Hmgs (HMG Coenzyme A synthase) | DRSC06866 | 1.35e5 | 4750
CG13026 | DRSC09906 | 1.77e5 | 10123
CG4842 | DRSC10453 | 1.49e5 | 6043
tub (tube) | DRSC12389 | 73437 | 3585
fred (friend of echinoid) | DRSC00349 | 1.50e5 | 4758
fred (friend of echinoid) | DRSC00599 | 1.43e5 | 4867
fred (friend of echinoid) | DRSC00601 | 1.46e5 | 4963
fred (friend of echinoid) | DRSC00602 | 1.54e5 | 4872
Nepl21 (Neprilysin-like 21) | DRSC14133 | 1955 | 1104
PCID2 (PCI domain-containing protein 2) | DRSC10822 | 79148 | 3353
ND-B18 (NADH dehydrogenase (ubiquinone) B18 subunit) | DRSC19947 | 1.50e5 | 6240
sha (shavenoid) | DRSC06331 | 97047 | 3973
Tim13 | DRSC09848 | 1.21e5 | 7732
TpnC4 (Troponin C isoform 4) | DRSC04856 | 1.12e5 | 4808
rux (roughex) | DRSC18829 | 6878 | 832
Ns1 (Nucleostemin 1) | DRSC15529 | 80362 | 6001
Tgt (tRNA-guanine transglycosylase) | DRSC00672 | 84690 | 3475
Kank | DRSC05513 | 1.29e5 | 5480
Kank | DRSC05933 | 3022 | 163
Gem4b + Gem4c | DRSC17294 | 81878 | 2697
CG31528 | DRSC12003 | 92564 | 3982
lambdaTry | DRSC06137 | 93151 | 4080
RpL35 (Ribosomal protein L35) | DRSC18347 | 54200 | 5015
CG14451 | DRSC11708 | 1.37e5 | 6840
CG18476 | DRSC15281 | 75177 | 4099
l(2)05287 (lethal (2) 05287) | DRSC02151 | 81729 | 3286
l(2)05287 (lethal (2) 05287) | DRSC02152 | 99716 | 5057
UbcE2H (Ubiquitin conjugating enzyme E2H) | DRSC18221 | 8595 | 956
NijC (Ninjurin C) | DRSC14851 | 1.43e5 | 6549
CG31759 | DRSC01230 | 1.40e5 | 5973
mip40 (Myb-interacting protein 40) | DRSC06541 | 67731 | 3176
Ctf4 (Chromosome transmission fidelity 4) | DRSC06380 | 156 | 43
CG14253 | DRSC14748 | 1.30e5 | 5893
CG31562 (retired record) | DRSC12273 | 1.18e5 | 5610
CG31562 (retired record) | DRSC12274 | 1.32e5 | 6483
CG11598 | DRSC14331 | 1.46e5 | 6186
Cdk9 (Cyclin-dependent kinase 9) | DRSC04601 | 79274 | 4551
CG10435 | DRSC14246 | 68962 | 3217
Miga (Mitoguardin) | DRSC17821 | 88717 | 4716
Psf3 (Partner of Sld Five 3) | DRSC18216 | 1.09e5 | 7058
JMJD5 (Jumonji domain containing 5) | DRSC08372 | 1.05e5 | 4364
lolal (lola like) | DRSC06948 | 67167 | 2953
ND-MWFE (NADH dehydrogenase (ubiquinone) MWFE subunit) | DRSC06364 | 1.03e5 | 3928
CG11426 | DRSC11658 | 1.16e5 | 5435
CG13807 | DRSC08342 | 93511 | 3893
Mgtor (Megator) | DRSC05958 | 3323 | 185
CG14480 | DRSC06452 | 1.46e5 | 5114
CG9240 | DRSC20177 | 1.48e5 | 6184
Smyd4-3 (SET and MYND domain containing, class 4, member 3) | DRSC07041 | 3012 | 216
CG10486 | DRSC09735 | 70908 | 3238
Spn100A (Serpin 100A) | DRSC14596 | 1782 | 960
Cyt-c-d (Cytochrome c distal) | DRSC03309 | 1.01e5 | 3929
Sardh (Sarcosine dehydrogenase) | DRSC06981 | 74510 | 3414
CG3638 | DRSC18533 | 1.00e5 | 5449
Polr2I (RNA polymerase II subunit I) | DRSC16832 | 76750 | 5840
CG31538 | DRSC12059 | 71962 | 4258
Sem1 (Suppressor of exocyst mutations 1) | DRSC02282 | 1.46e5 | 5074

15 entries from above in another layout.
CG31562 (retired record) [DRSC12274]
- E2F firefly, rep 1: 1.32e5
- Renilla normaliser, rep 1: 6483

CG11598 [DRSC14331]
- E2F firefly, rep 1: 1.46e5
- Renilla normaliser, rep 1: 6186

Cdk9 (Cyclin-dependent kinase 9) [DRSC04601]
- E2F firefly, rep 1: 79274
- Renilla normaliser, rep 1: 4551

CG10435 [DRSC14246]
- E2F firefly, rep 1: 68962
- Renilla normaliser, rep 1: 3217

Miga (Mitoguardin) [DRSC17821]
- E2F firefly, rep 1: 88717
- Renilla normaliser, rep 1: 4716

Psf3 (Partner of Sld Five 3) [DRSC18216]
- E2F firefly, rep 1: 1.09e5
- Renilla normaliser, rep 1: 7058

JMJD5 (Jumonji domain containing 5) [DRSC08372]
- E2F firefly, rep 1: 1.05e5
- Renilla normaliser, rep 1: 4364

lolal (lola like) [DRSC06948]
- E2F firefly, rep 1: 67167
- Renilla normaliser, rep 1: 2953

ND-MWFE (NADH dehydrogenase (ubiquinone) MWFE subunit) [DRSC06364]
- E2F firefly, rep 1: 1.03e5
- Renilla normaliser, rep 1: 3928

CG11426 [DRSC11658]
- E2F firefly, rep 1: 1.16e5
- Renilla normaliser, rep 1: 5435

CG13807 [DRSC08342]
- E2F firefly, rep 1: 93511
- Renilla normaliser, rep 1: 3893

Mgtor (Megator) [DRSC05958]
- E2F firefly, rep 1: 3323
- Renilla normaliser, rep 1: 185

CG14480 [DRSC06452]
- E2F firefly, rep 1: 1.46e5
- Renilla normaliser, rep 1: 5114

CG9240 [DRSC20177]
- E2F firefly, rep 1: 1.48e5
- Renilla normaliser, rep 1: 6184

Smyd4-3 (SET and MYND domain containing, class 4, member 3) [DRSC07041]
- E2F firefly, rep 1: 3012
- Renilla normaliser, rep 1: 216
